For six substances, binding results are on record in PMC9929257.

Protein sequences, listed by entry. Tags and fused reporters are not part of them. Lines headed by an entry give the natural chain unless they say otherwise; changes in a name come on top.
UniProt Q9BV68: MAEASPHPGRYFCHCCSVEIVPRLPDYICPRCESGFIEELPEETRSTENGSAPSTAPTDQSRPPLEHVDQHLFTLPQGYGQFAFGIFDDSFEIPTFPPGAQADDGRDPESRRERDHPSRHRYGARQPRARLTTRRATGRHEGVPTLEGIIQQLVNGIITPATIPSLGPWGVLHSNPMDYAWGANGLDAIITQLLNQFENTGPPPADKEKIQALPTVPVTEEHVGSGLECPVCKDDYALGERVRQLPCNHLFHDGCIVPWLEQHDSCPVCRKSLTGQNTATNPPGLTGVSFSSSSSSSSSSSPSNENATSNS
UniProt Q13535: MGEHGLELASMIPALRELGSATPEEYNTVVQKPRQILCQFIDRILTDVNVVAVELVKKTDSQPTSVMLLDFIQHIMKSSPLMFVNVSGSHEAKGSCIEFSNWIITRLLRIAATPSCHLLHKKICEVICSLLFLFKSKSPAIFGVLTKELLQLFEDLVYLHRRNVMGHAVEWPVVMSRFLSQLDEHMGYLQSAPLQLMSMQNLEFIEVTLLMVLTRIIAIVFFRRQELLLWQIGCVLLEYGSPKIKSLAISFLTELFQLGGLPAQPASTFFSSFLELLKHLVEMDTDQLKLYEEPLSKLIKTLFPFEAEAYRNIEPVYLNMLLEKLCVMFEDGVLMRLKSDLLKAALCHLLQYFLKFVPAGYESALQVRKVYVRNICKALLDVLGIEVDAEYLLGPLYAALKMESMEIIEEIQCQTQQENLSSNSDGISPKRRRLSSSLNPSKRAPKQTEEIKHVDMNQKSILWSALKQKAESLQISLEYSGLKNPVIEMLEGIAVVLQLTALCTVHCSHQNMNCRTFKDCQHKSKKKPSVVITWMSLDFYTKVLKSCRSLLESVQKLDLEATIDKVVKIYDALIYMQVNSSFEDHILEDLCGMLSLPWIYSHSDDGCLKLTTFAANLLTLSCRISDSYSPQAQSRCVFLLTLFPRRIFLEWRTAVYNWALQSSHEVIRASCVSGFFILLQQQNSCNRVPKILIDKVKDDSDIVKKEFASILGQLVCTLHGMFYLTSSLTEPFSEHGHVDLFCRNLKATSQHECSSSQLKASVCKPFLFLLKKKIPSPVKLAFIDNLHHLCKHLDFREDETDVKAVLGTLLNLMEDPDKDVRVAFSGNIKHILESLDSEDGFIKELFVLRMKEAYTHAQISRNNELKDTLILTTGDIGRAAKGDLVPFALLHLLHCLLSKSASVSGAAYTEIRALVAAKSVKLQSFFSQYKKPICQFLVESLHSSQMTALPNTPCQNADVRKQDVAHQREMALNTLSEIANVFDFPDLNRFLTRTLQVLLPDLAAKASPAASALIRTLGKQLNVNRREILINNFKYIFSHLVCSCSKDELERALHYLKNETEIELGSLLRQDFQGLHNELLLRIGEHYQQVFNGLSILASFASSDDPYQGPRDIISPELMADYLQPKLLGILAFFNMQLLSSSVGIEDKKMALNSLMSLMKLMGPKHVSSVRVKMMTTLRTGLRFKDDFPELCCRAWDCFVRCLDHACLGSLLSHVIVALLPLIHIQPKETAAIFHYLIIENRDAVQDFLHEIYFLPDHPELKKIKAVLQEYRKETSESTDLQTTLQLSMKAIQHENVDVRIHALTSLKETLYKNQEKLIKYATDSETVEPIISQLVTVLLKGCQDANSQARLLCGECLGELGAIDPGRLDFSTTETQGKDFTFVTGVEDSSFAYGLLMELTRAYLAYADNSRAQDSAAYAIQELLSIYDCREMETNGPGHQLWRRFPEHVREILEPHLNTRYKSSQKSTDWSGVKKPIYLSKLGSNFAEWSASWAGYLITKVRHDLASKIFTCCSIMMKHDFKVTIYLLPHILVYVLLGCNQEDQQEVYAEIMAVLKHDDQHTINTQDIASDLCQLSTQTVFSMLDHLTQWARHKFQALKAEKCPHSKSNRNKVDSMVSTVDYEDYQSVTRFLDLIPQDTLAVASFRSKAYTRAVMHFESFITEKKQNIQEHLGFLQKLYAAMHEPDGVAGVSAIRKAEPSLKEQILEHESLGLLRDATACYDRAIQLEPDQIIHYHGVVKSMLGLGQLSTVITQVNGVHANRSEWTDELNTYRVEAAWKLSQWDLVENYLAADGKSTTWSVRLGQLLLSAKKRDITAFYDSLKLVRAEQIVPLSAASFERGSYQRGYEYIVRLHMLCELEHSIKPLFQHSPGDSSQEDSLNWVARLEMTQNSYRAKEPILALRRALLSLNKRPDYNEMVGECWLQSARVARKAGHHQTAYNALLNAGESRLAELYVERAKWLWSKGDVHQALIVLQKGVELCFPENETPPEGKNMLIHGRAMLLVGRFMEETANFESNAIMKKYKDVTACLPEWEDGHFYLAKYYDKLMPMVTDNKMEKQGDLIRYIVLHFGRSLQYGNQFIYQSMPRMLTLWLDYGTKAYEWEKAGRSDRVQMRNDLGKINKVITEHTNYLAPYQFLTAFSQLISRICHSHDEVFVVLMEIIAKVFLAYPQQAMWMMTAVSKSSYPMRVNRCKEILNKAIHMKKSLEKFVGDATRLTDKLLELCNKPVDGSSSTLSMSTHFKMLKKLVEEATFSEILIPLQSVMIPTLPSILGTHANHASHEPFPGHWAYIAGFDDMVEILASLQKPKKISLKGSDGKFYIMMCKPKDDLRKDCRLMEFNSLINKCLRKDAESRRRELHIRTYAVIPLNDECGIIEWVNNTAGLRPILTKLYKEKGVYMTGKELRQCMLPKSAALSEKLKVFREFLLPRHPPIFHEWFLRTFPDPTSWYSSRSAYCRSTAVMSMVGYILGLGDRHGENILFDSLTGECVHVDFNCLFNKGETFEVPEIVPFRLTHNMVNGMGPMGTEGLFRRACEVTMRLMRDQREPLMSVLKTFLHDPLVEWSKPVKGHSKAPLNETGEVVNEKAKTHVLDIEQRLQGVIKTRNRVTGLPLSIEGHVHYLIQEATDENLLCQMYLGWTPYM
UniProt O60934: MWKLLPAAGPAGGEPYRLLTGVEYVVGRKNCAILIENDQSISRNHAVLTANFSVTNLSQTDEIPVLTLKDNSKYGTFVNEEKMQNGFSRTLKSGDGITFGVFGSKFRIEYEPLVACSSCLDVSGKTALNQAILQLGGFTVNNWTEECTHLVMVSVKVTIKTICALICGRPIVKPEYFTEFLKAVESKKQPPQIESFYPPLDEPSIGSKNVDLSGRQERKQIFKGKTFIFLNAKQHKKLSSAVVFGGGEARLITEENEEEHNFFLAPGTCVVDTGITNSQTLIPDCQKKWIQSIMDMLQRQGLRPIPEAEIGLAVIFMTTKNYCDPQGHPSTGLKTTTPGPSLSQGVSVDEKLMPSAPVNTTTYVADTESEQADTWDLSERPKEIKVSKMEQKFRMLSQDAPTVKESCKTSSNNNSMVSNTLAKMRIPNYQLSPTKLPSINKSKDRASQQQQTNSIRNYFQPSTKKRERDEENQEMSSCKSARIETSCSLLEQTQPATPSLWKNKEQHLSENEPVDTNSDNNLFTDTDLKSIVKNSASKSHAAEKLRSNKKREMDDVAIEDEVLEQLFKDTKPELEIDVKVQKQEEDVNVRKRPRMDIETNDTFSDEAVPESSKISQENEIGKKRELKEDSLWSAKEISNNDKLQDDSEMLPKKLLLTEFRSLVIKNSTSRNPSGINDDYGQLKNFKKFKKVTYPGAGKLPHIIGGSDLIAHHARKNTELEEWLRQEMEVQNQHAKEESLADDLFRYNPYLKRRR
UniProt Q92878: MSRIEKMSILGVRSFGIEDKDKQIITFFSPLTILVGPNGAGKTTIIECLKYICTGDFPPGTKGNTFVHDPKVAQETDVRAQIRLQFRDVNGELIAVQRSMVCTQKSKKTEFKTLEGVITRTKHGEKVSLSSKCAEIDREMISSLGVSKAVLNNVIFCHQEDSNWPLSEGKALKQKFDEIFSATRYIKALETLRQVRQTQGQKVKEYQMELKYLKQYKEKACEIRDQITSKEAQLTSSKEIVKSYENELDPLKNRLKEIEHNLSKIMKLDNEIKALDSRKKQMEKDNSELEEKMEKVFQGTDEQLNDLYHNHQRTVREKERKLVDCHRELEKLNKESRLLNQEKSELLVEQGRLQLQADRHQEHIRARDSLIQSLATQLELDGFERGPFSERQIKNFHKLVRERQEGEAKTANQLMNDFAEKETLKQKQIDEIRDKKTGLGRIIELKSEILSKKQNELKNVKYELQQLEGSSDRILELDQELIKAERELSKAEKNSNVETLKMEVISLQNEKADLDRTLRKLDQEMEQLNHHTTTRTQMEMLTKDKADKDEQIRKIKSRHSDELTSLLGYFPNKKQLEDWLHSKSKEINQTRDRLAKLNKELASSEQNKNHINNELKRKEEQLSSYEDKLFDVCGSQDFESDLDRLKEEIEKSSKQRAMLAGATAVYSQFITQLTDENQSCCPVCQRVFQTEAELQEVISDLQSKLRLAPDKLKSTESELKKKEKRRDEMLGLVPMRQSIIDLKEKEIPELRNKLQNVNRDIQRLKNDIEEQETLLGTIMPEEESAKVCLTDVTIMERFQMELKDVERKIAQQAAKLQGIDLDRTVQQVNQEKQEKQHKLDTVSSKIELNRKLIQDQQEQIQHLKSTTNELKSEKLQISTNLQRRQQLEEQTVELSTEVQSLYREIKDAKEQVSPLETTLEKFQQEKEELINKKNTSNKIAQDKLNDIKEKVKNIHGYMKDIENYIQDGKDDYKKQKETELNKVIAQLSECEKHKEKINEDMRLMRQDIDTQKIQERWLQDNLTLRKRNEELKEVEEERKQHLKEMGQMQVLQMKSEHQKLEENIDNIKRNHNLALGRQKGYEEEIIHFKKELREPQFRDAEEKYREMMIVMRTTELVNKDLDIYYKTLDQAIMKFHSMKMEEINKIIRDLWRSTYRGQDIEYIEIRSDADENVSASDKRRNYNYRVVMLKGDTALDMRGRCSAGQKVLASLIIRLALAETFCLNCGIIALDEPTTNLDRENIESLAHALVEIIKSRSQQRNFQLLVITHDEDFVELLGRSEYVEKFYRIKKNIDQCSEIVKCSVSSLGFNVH

The target in test [1] is RNF126 (endogenous, HCC1806) (human (endogenous in HCC1806)) (UniProt Q9BV68). Briefly: co-IP; endogenous proteins; HCC1806 cells treated with or without IR (10 Gy), extracts harvested 1 h after IR; coimmunoprecipitation, Western blotting. For orientation: A western blot detects proteins with antibodies after separation by electrophoresis.
Test [2] has the same target. Kind of test: SEC; FPLC of native complexes: extracts of HCC1806 cells 1 h post-IR (10 Gy) fractionated on Superose 6 size-exclusion columns with a high-salt buffer; Western blotting of fractions.
Test [3] concerns the target RNF126 (construct of Figures S3A-D, not shown) (human) (UniProt Q9BV68). Briefly: co-IP; co-IP of RNF126 and RAD50 (Figure S3A,B); cells and constructs not shown.
The target in test [4] is GST-RNF126 (human) (UniProt Q9BV68). Briefly: pull-down; GST-fused RNF126 or its fragments and FLAG-RAD50, FLAG-NBS1 or FLAG-MRE11 co-expressed in HEK293T cells; GST-pulldown, Western blotting.

No constants are given. Whether binding was seen depends on the method and setting. For part of these data: In cells and extracts the contact can be indirect. Some entries that bind do so weakly or less than the wild type.

With “ATR (endogenous, HCC1806) (from UniProt Q13535 1-2644) (enzyme)”, the binding result in test [1] and in test [2] was “binds” throughout.
For the substance “NBS1 (endogenous, HCC1806) (from UniProt O60934 1-754)”, the binding entry in test [1] and in test [2] was “binds” each time.
“RAD50 (construct of Figure S3A,B, not shown) (from UniProt Q92878 1-1312)”: the binding entry in test [3] is “binds”.
Consider FLAG-NBS1 (from UniProt O60934 1-754), for which the binding result in test [4] is given as “binds”.
In the case of FLAG-RAD50 (from UniProt Q92878 1-1312), the binding entry in test [4] is “binds”.
For the substance “RAD50 (endogenous, HCC1806) (from UniProt Q92878 1-1312)”, the binding result in test [1] and in test [2] was “binds” in each case.
